From paper PMC7975690
No constants are given. Whether binding was seen depends on the method and setting. In cells and extracts the contact can be indirect. Some results given as binding are weak or reduced against the parent protein; the word gives no strength.

Chains of the proteins cited; added tags and fusions are not shown. Residues count along the entry.
UniProt P40199, residues 35-320: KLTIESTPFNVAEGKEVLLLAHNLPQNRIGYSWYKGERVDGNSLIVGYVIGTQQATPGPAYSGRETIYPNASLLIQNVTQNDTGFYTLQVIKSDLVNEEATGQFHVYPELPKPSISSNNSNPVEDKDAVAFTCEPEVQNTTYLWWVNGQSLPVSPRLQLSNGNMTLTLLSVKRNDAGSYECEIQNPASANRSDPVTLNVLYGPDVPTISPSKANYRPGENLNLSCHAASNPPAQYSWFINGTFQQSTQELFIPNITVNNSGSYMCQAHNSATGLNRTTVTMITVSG
UniProt P01137, residues 279-390: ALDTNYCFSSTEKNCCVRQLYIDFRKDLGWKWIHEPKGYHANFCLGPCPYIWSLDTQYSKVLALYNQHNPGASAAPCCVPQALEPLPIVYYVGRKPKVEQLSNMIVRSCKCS

T1: CD151 (human (endogenous in HT29)) (UniProt P48509)
T1 sequence: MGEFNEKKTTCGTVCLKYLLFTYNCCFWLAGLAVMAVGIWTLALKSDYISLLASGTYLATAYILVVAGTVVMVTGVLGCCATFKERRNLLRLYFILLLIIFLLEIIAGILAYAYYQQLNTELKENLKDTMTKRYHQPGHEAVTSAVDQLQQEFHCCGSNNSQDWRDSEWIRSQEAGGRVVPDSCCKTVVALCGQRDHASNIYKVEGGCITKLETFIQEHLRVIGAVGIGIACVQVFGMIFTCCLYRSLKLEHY

B1: leucine-rich repeat-containing G-protein coupled receptor 5 (LGR5) (receptor, UniProt O75473 22-907)
chain: GSSPRSGVLLRGCPTHCHCEPDGRMLLRVDCSDLGLSELPSNLSVFTSYLDLSMNNISQLLPNPLPSLRFLEELRLAGNALTYIPKGAFTGLYSLKVLMLQNNQLRHVPTEALQNLRSLQSLRLDANHISYVPPSCFSGLHSLRHLWLDDNALTEIPVQAFRSLSALQAMTLALNKIHHIPDYAFGNLSSLVVLHLHNNRIHSLGKKCFDGLHSLETLDLNYNNLDEFPTAIRTLSNLKELGFHSNNIRSIPEKAFVGNPSLITIHFYDNPIQFVGRSAFQHLPELRTLTLNGASQITEFPDLTGTANLESLTLTGAQISSLPQTVCNQLPNLQVLDLSYNLLEDLPSFSVCQKLQKIDLRHNEIYEIKVDTFQQLLSLRSLNLAWNKIAIIHPNAFSTLPSLIKLDLSSNLLSSFPITGLHGLTHLKLTGNHALQSLISSENFPELKVIEMPYAYQCCAFGVCENAYKISNQWNKGDNSSMDDLHKKDAGMFQAQDERDLEDFLLDFEEDLKALHSVQCSPSPGPFKPCEHLLDGWLIRIGVWTIAVLALTCNALVTSTVFRSPLYISPIKLLIGVIAAVNMLTGVSSAVLAGVDAFTFGSFARHGAWWENGVGCHVIGFLSIFASESSVFLLTLAALERGFSVKYSAKFETKAPFSSLKVIILLCALLALTMAAVPLLGGSKYGASPLCLPLPFGEPSTMGYMVALILLNSLCFLMMTIAYTKLYCNLDKGDLENIWDCSMVKHIALLLFTNCILNCPVAFLSFSSLINLTFISPEVIKFILLVVVPLPACLNPLLYILFNPHFKEDLVSLRKQTYVWTRSKHPSLMSINSDDVEKQSCDSTQALVTFTSSSITYDLPPSSVPSPAYPVTESCHLSSVAFVPCL

Biological target: T1, CD151 (human (endogenous in HT29))
Assay: co-IP; CoIP of CD151 from HT29 cell lysate with anti-CD151 antibody (Figure 6C); how the partners were detected is not told

Row | binding | Molecule
1 | binds | carcinoembryonic antigen-related cell adhesion molecule 6 (CEACAM6) (from UniProt P40199 35-320)
2 | binds | transforming growth factor β1 (TGFβ1) (from UniProt P01137 279-390)
3 | binds | B1
